Data reported in publication PMC4686830, “Ankyrin-mediated self-protection during cell invasion by the bacterial predator Bdellovibrio bacteriovorus” (Nature Communications, 2015).
Results are given in words; binding and its absence hold for the method and conditions named. Some entries that bind do so weakly or less than the wild type. Tags and fused reporters may be left off the sequences shown.

Key:
[1] = target: T1, Bd0816 DD-endopeptidase S58A (K26M start, C-terminal H8 tag) (Bdellovibrio bacteriovorus HD100) (UniProt Q6MPN2); experiment: crystal structure; co-expressed and co-purified complexes, hanging drop at 18 °C; molecular replacement; both purified
T1 sequence: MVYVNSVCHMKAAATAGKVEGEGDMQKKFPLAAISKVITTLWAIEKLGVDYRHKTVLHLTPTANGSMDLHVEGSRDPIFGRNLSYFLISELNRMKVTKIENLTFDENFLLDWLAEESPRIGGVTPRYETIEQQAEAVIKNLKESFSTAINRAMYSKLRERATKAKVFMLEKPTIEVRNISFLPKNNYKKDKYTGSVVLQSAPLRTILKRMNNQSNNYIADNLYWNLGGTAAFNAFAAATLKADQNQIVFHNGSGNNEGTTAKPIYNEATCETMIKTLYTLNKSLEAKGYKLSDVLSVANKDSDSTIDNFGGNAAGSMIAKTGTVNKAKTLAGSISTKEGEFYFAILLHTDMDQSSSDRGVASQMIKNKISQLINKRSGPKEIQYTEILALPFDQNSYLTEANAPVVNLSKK

[2] = target: T2, Bd3459 DD-endopeptidase, new construct starting post signal peptide with K38M, C-terminal H8 tag (Bdellovibrio bacteriovorus HD100) (UniProt Q6MHT0); experiment: as above
T2 sequence: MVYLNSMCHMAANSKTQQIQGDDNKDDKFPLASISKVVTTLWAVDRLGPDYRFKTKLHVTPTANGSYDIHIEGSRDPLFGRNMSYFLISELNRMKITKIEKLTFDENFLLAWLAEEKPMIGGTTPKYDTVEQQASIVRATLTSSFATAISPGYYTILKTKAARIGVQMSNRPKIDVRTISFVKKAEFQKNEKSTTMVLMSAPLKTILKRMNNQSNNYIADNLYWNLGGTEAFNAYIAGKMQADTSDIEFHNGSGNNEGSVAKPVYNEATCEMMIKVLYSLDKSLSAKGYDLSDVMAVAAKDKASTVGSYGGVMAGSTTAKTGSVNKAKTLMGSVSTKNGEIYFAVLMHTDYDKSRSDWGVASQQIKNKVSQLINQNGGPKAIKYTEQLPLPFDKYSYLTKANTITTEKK

[3] = target: T3, Bd3459 DD-endopeptidase (K38M start, C-terminal H8 tag) acylated with penicillin G in crystals of its complex with Bd3460 (Bdellovibrio bacteriovorus HD100) (UniProt Q6MHT0); experiment: crystal structure; pre-grown crystals of the Bd3459:Bd3460 complex incubated with reservoir solution with 2 mM penicillin G for one hour; both purified
T3 sequence (chain, active site serine acylated by penicillin G): T2 sequence

binding [1]: binds
binding [2]: binds
binding [3]: binds
B1: Bd3460, exported domain (amino acids 26-220), untagged, co-expressed with an endopeptidase (natural protein, Bdellovibrio bacteriovorus HD100, UniProt Q6MHS9 25-220, looked up)
chain: MSGKSSKALNEAAEQGDLAKVKNLVQKNKIDLNAQDETGMTPLMNAAMGGNLDIVKFLLSKKVNLELKNNGGETALAFAVTNDAYDVAEELIKAGANVDIIVAGDEGDTLFMRAAQNNKKTAESILAKNKSLINKANTLGETALFAVARYGTPADIDFLIKKGADLKLKNKKGQTALDVAKEASNQDTAKALSKKK
notes: The only change is the start methionine in place of A25; also called untagged Bd3460; source: E. coli T7 express, co-expressed from pCDF-Duet1 with the H8-tagged endopeptidase, co-purified (His column)
